Results published in article PMC12392869.
Results are given in words; binding and its absence hold for the method and conditions named. Some results given as binding are weak or reduced against the parent protein; the word gives no strength.

By UniProt entry, the sequences of proteins in these tests, tags left out. Where a name states a change or a piece, a line headed by the entry shows the natural chain unless it says otherwise.
UniProt P06756: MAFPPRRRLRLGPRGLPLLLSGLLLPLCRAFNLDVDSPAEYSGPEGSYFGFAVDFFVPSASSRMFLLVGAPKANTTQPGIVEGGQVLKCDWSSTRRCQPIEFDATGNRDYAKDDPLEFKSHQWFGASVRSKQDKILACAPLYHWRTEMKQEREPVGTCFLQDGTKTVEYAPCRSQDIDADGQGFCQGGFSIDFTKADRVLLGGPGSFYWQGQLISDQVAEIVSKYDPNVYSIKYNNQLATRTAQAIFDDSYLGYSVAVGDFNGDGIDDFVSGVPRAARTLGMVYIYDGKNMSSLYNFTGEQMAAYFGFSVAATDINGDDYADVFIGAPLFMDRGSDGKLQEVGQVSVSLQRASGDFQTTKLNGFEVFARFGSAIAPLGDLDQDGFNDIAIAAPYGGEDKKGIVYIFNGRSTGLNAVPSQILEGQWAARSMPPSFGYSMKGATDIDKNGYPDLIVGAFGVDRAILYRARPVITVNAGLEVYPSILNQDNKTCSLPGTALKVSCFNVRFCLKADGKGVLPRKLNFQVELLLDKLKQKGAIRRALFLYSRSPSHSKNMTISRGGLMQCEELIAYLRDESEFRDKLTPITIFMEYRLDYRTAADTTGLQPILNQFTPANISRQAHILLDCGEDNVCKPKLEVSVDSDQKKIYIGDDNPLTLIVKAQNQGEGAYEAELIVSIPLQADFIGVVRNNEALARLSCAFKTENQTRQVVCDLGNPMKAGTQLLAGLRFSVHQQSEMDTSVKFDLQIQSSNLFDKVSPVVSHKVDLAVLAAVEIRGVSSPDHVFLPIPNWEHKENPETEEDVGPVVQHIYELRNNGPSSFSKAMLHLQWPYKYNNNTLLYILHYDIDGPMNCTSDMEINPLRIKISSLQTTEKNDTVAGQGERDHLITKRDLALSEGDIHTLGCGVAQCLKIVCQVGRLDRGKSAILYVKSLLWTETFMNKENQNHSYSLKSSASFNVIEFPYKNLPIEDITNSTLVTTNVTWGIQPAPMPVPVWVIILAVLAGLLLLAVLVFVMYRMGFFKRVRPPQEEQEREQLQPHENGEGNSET

Key:
[1] = target: integrin αvβ8 ectodomain (UniProt P06756); assay: fluorescence polarisation; competition: binder titrated against 10 nM FITC-cyclic-… or FITC-proTGFβ3 peptide bound to soluble integrin ectodomain; HEPES pH 7.5, NaCl, MgCl2, CaCl2, 0.5 mg/mL BSA; 2 h at room temperature; both purified
[2] = target: integrin αvβ6 ectodomain (UniProt P06756); assay: as above

GRGDLGRLKK (FITC labeled aminocaproic acid) [FITC-proTGFβ3 peptide (FITC labeled aminocaproic acid-… peptide)]
binding [1]: binds | binding [2]: binds
